The data set is described as follows: Test 1: amount of calcium carried away per surface unit (rapid immersion, EDTA titration). Type of data set: physicochemical.

Consider `[Ca+2].[Cl-].[Cl-]` [CaCl2, calcium chloride], for which the surface loading coefficient (linear regression, CaCl2 in ethanol, 5 s immersion, drying 1 h 65° C. vacuum, rough surfaces) was 3.4±3 ng·mm^−2·mM^−1. Moreover, the “Average variation coefficient (%) of the amount of calcium carried away per surface unit” value reads like this: (solvent ethanol) 13.30%; (solvent ethanol and drying) 13.15%; (solvent water) 16.91%.

The values are drawn from patent publication US8568762B2, “Methods for modifying the surface of an implant to provide said surface with calcium” (Biotechnology Institute, I Mas D, S.L., priority 2010, dated 2013).
